{"sequences": {"note": "Protein sequences, listed by entry. Tags and fused reporters are not part of them. Residues count along the entry.", "UniProt Q969D9, residues 29-159": "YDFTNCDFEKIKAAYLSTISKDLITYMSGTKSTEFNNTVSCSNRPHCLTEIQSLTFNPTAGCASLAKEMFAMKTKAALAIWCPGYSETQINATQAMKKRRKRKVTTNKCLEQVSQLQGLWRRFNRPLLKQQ"}, "source": "patent US20260234234A1", "target": "T1, hTSLPR-Fc dimer molecules from R&D Systems (cat. no. 981-TR) (human) (UniProt Q9HC73)", "T1 sequence (looked up)": "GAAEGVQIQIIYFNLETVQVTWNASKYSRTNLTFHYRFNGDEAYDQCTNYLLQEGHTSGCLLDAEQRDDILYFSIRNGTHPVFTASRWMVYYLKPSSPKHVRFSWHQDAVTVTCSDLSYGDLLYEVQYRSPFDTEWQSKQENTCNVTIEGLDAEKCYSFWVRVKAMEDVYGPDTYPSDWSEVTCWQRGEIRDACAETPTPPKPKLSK", "assay": "SPR, hTSLPR-Fc immobilised on CM5, hTSLP 0-50 nM (FIG. 10A)", "note": "These are yes or no findings as the source states them, for the method shown. Some binding calls cover weakened binding; strength is not graded here. Sequences can lack the tags named with a protein."}
{"substance": "hTSLP antigen, version not stated (from UniProt Q969D9 29-159) (ligand)", "values": [{"measurement": "binding", "value": "binds"}]}
